This passage reports binding results from article PMC10501182.

Sequences of proteins named here, by UniProt entry; tags and fusion partners are left off.
UniProt Q9UL03: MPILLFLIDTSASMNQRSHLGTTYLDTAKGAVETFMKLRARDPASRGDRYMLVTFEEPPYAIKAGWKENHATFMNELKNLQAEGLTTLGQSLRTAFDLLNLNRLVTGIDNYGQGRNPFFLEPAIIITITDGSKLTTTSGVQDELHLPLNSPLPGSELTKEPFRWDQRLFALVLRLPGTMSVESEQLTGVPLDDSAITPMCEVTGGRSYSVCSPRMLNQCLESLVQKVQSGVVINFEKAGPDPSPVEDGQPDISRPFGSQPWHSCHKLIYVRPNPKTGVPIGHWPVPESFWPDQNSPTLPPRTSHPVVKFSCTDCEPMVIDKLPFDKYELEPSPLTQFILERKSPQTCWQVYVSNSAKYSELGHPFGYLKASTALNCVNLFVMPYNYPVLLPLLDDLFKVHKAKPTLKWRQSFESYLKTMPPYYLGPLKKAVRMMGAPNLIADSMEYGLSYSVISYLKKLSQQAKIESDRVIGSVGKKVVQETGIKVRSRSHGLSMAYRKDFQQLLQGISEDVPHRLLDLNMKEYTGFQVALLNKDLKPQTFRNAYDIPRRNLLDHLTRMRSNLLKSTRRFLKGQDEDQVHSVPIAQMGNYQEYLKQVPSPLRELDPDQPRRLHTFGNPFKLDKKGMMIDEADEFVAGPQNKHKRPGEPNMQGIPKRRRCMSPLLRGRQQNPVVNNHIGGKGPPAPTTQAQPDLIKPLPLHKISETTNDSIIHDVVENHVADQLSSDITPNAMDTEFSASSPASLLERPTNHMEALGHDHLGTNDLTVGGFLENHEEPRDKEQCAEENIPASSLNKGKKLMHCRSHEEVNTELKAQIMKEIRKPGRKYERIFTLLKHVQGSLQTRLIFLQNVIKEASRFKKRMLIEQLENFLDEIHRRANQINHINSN

In the test the target is INTS6 (human) (UniProt Q9UL03). Description: cryo-EM structure; INTAC-PEC assembled from purified human INTAC, NELF, DSIF, S. scrofa Pol II and a DNA-RNA scaffold; gradient fixation (GraFix); map at 4.2 Å, subcomplexes at 3.5-3.8 Å by focused refinement; earlier structures of INTAC and PEC fitted into the maps; both purified.

Results are given in words; binding and its absence hold for the method and conditions named. Some results given as binding are weak or reduced against the parent protein; the word gives no strength.

In the case of NELF-B (from UniProt Q8WX92 49-628), the binding result is listed as “binds”.
